Test results taken from patent publication US6599924B1, “2-hetaryl-3,4-dihydro-2H-pyrrole derivatives” (Bayer Aktiengesellschaft, priority 1998, dated 2003).
Some results were stated once for a whole list of compounds, not compound by compound.

Assays:
Assay type in all cases: in vivo
[1] = test system: greenhouse red spider mite Tetranychus urticae (all development stages); experiment: Tetranychus test (OP-resistant/dip treatment); details: active compound concentration of 0.1%, after 7 days; bean plants (Phaseolus vulgaris) dipped; OP-resistant
[2] = test system: greenhouse red spider mite (Tetranychus urticae), all stages; experiment: Tetranychus test; details: active compound concentration of 0.1%, after 7 days; bean plants (Phaseolus vulgaris) dipped
[3] = test system: caterpillars of the armyworm (Spodoptera frugiperda); experiment: Spodoptera frugiperda test; details: active compound concentration of 0.1%, after 7 days; cabbage leaves (Brassica oleracea) dipped
[4] = test system: larvae of the mustard beetle (Phaedon cochleariae); experiment: Phaedon larvae test; details: active compound concentration of 0.1%, after 7 days; cabbage leaves (Brassica oleracea) dipped

SMILES	kill [1]	kill [2]	kill [3]	kill [4]
FC(F)(F)Oc1ccc(-c2ccc(C3CCC(c4cccs4)=N3)cc2)cc1 (stereo not drawn) [Example I-7]	at least 95%	–	–	–
FC(F)(F)Oc1ccc(-c2ccc(C3CCC(c4ccc(Cl)s4)=N3)cc2)cc1 (stereo not drawn) [Example I-148]	at least 95%	–	–	–
FC(F)(F)Oc1ccc(-c2ccc(C3CCC(c4sccc4Cl)=N3)cc2)cc1 (stereo not drawn) [Example I-195]	–	at least 90%	at least 85%	–
Cc1cccnc1C1=NC(c2ccc(-c3ccc(OC(F)(F)F)cc3)cc2)CC1 (stereo not drawn) [Example I-289]	–	at least 90%	at least 85%	at least 98%
FC(F)(F)Oc1ccc(-c2ccc(C3CCC(c4ncccc4C(F)(F)F)=N3)cc2)cc1 (stereo not drawn) [Example I-336]	–	–	at least 85%	–
FC(F)(F)Oc1ccc(-c2ccc(C3CCC(c4ccoc4)=N3)cc2)cc1 (stereo not drawn) [Example I-383]	–	at least 90%	–	at least 98%
Fc1ncccc1C1=NC(c2ccc(-c3ccc(OC(F)(F)F)cc3)cc2)CC1 (stereo not drawn) [Example I-477]	–	–	at least 85%	at least 98%
FC(F)(F)Oc1ccc(-c2ccc(C3CCC(c4nccs4)=N3)cc2)cc1 (stereo not drawn) [Example I-524]	–	–	–	at least 98%
FC(F)(F)Oc1ccc(-c2ccc(C3CCC(c4ccc(Br)s4)=N3)cc2)cc1 (stereo not drawn) [Example I-618]	–	at least 90%	–	–
FC(F)(F)Oc1ccc(Oc2ccc(C3CCC(c4sccc4Cl)=N3)cc2)cc1 (stereo not drawn) [Example I-708, 2-(5-(4-Trifluoromethoxyphenoxy-phenyl)-Δ^2-pyrrolin-2-yl)-3-chlorothiophene]	–	at least 90%	–	–
Clc1ccc(COc2ccc(C3CCC(c4sccc4Cl)=N3)cc2)cc1 (stereo not drawn) [Example I-709]	–	at least 90%	–	–
Cc1ccsc1C1=NC(c2ccc(-c3ccc(OC(F)(F)F)cc3)cc2)CC1 (stereo not drawn) [Example I-727]	–	at least 90%	–	–
FC(F)(F)Oc1ccc(-c2ccc(C3CCC(c4ccccn4)=N3)cc2)cc1 (stereo not drawn) [Example I-774]	–	–	at least 85%	at least 98%
Fc1cnccc1C1=NC(c2ccc(-c3ccc(OC(F)(F)F)cc3)cc2)CC1 (stereo not drawn) [Example I-821]	–	–	at least 85%	at least 98%
